Measurements published in US20190151341A1, “APPLICATION OF TENVERMECTIN FOR PREVENTING AND TREATING PARASITE INFECTION” (ZHEJIANG HISUN PHARMACEUTICAL CO., LTD., priority 2016, published 2019).
Some of these results come from one statement about several compounds together. For some of these results: At least one structure is not confirmed: it was looked up by name or label, or the drawing left a doubt.

Assays:
zebrafish = test: Toxicity to zebrafish, semi-static method, 96 hours; conditions: for toxicity grade according to LC50: 96-hour LC50; for 96-hour LC50 on zebrafish: semi-static
Procedure: Test agents: avermectin, milbemycin, ivermectin, tenvermectin A and tenvermectin B were all from Zhejiang Hisun Pharmaceutical Co., Ltd. The samples were formulated into 50 mg/ml mother liquors with DMF.
Test fish and water: zebrafish (Brachydanio rerio) was purchased from Zhejiang Academy of Agricultural Sciences, with the same size, average body length of 2-3 cm and average body weight of 0.3 g. The zebrafish was domesticated for 7 days indoors before the test. […] Feeding was stopped 1 day before the test and the fish were not fed during the test. The test water was tap water with residual chlorine removed by exposure to the sun for more than 24 hours, and the pH thereof was 6.8.
Test methods: semi-static method. Three level differences were provided for each sample: 0.5 ppm, 1.0 ppm and 1.5 ppm, and three parallel groups were provided for each level difference, 10 zebrafish were raised for each group, and blank controls (one group without agents and one group with only solvent) were provided. The corresponding volume of mother liquor was taken according to the concentration as required for each sample, and the volume of each sample was adjusted to 150 μl with DMF, and then each sample was added to the test group (containing 1.6 L of water). The room temperature was controlled at 22±2° C. for 96 hours, and the water was changed every 24 hours and the samples were re-added. The fish mortality rate was recorded for the first 8 hours and at 24, 48, 72 and 96 hours, and the dead fish were removed in time.

[1] = tested on: allogynogenetic crucian carp; test: Toxicity to allogynogenetic crucian carp, semi-static method, 96 hours; assay type: in vivo
From the text: Test fish and water: allogynogenetic crucian carp was purchased from Taowang Farm in Jiaojiang District, Taizhou City, with a body length of (9.60±0.52) cm and a body weight of (28.22±3.44) g. The healthy and vigorous fish with the same size were selected and temporarily raised in an indoor aquarium. They were domesticated for 7 days indoors before the test. The natural mortality rate was zero.
99.4% Tenvermectin A (the mass content of tenvermectin B was 0.02%) (Zhejiang Hisun Pharmaceutical Co., Ltd.);
Tenvermectin (the mass ratio of tenvermectin A/tenvermectin B was 95/5) (Zhejiang Hisun Pharmaceutical Co., Ltd.);
Tenvermectin (the mass ratio of tenvermectin A/tenvermectin B was 90/10) (Zhejiang Hisun Pharmaceutical Co., Ltd.);
Tenvermectin (the mass ratio of tenvermectin A/tenvermectin B was 85/15) (Zhejiang Hisun Pharmaceutical Co., Ltd.);
99.1% Tenvermectin B (the mass content of tenvermectin A was 0.51%) (Zhejiang Hisun Pharmaceutical Co., Ltd.);
92% Avermectin (Zhejiang Qianjiang Biochemical Co., Ltd.);
96% Ivermectin (Zhejiang Hisun Pharmaceutical Co., Ltd.);
90% Methylamino avermectin benzoate (Emamectin benzoate) (Zhejiang Shenghua Biok Biotechnology Co., Ltd.).
Method: semi-static method. […]

Lernaea = test: Efficacy test for preventing and treating Lernaea on diseased allogynogenetic crucian carp; assay type: in vivo; conditions: Table 9: 0.02 mg/L agents for 24 hours; Henderson-Tilton formula

| Molecule | toxicity grade according to LC50 (zebrafish) | 96-hour LC50 on zebrafish (zebrafish) [ppm] | 96-hour LC50 on allogynogenetic crucian carp [1] [ppm] | Relative controlling efficacy (%) (Lernaea) |
| --- | --- | --- | --- | --- |
| CC[C@H](C)[C@H]1O[C@]2(C=C[C@@H]1C)C[C@@H]1C[C@@H](C/C=C(\C)[C@@H](O[C@H]3C[C@H](OC)[C@@H](O[C@H]4C[C@H](OC)[C@@H](O)[C@H](C)O4)[C@H](C)O3)[C@@H](C)/C=C/C=C3\CO[C@@H]4[C@H](O)C(C)=C[C@@H](C(=O)O1)[C@]34O)O2 [Avermectin, reference compound] | high-toxic (high-toxic agents with a LC50<1.0 ppm) | < 0.5 | < 0.5 |  |
| CC[C@H](C)C1O[C@]2(C=C[C@@H]1C)C[C@@H]1C[C@@H](C/C=C(\C)[C@@H](O[C@H]3C[C@H](OC)[C@@H](O[C@H]4C[C@H](OC)[C@H](NC)[C@H](C)O4)[C@H](C)O3)[C@@H](C)/C=C/C=C3\CO[C@@H]4[C@H](O)C(C)=C[C@@H](C(=O)O1)[C@]34O)O2.O=C(O)c1ccccc1 (stereo partly shown) [Methylamino avermectin benzoate, reference compound] | high-toxic (high-toxic agents with a LC50<1.0 ppm) | < 0.5 | < 0.5 |  |
| COC1CC(OC2C(C)OC(OC3C(C)=CCC4CC(CC5(CCC(C)C(C)O5)O4)OC(=O)C4C=C(C)C(O)C5OCC(=CC=CC3C)C45O)CC2OC)OC(C)C1O (stereo not shown) [Tenvermectin A, tenvermectin A] |  |  |  | above 90% |
| CC[C@H]1O[C@]2(CC[C@@H]1C)C[C@@H]1C[C@@H](C/C=C(\C)[C@@H](O[C@H]3C[C@H](OC)[C@@H](O[C@H]4C[C@H](OC)[C@@H](O)[C@H](C)O4)[C@H](C)O3)[C@@H](C)/C=C/C=C3\CO[C@@H]4[C@H](O)C(C)=C[C@@H](C(=O)O1)[C@]34O)O2 [Tenvermectin B, tenvermectin B] |  |  |  | above 90% |
| Milbemycin [reference compound] | high-toxic (high-toxic agents with a LC50<1.0 ppm) | < 0.5 |  |  |
